Reference: article PMC5068962
Results are given in words; binding and its absence hold for the method and conditions named. In cells and extracts the contact can be indirect. A result given as binding can be weak or reduced; the word gives no strength. Where a sequence is shown, tags or fusion partners need not be part of it.

Chains of the proteins cited; added tags and fusions are not shown. Lines headed by an entry give the natural chain unless they say otherwise; changes in a name come on top.
UniProt Q9BL54: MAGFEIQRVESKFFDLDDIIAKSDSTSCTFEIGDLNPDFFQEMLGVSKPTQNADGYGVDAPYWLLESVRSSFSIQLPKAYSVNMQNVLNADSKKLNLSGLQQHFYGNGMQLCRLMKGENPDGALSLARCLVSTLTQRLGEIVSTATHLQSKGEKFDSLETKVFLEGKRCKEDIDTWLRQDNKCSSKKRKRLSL

Experiments:
[1] = target: T1, 6x(His)-PSF-1 (C. elegans) (UniProt Q22019); assay: pull-down; double tag affinity co-purification of four subunits co-expressed in E. coli BL21: soluble lysate on His-Trap HP (eluted with 300 mM imidazole), then Strep-Trap (eluted with 2.5 mM desthiobiotin); 0.15 M NaCl, 50 mM Hepes pH 6.8; Coomassie and immunoblot against Strep, 6xHis and PSF-3
T1 sequence: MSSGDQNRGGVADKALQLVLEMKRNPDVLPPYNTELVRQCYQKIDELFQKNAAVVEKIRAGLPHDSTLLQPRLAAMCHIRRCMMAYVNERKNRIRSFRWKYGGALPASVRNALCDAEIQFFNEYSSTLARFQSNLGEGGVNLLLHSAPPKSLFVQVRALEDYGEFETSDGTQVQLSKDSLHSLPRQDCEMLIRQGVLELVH

Strep-SLD-5 (C. elegans) = assay: as above

PSF-3 (recombinant, from pLP963) (from UniProt Q9BL54)
binding [1]: binds

B1: 6x(His)-PSF-1 (protein, UniProt Q22019 1-201)
chain: T1 sequence
binding (Strep-SLD-5 (C. elegans)): binds
